Results as given in publication PMC7744027.
These are yes or no findings as the source states them, for the method shown. Binding seen in cells or lysates may run through a third protein. Some binding calls cover weakened binding; strength is not graded here.

Sequences of proteins named here, by UniProt entry; tags and fusion partners are left off.
UniProt Q15717: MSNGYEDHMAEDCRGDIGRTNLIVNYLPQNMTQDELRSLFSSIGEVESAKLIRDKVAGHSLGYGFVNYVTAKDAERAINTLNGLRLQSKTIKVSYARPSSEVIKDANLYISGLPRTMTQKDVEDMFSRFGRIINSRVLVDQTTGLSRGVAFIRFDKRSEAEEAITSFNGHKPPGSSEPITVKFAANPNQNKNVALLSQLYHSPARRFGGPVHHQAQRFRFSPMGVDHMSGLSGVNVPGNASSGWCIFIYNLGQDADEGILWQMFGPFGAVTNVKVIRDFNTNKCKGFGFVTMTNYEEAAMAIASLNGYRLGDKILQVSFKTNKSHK
UniProt P45974: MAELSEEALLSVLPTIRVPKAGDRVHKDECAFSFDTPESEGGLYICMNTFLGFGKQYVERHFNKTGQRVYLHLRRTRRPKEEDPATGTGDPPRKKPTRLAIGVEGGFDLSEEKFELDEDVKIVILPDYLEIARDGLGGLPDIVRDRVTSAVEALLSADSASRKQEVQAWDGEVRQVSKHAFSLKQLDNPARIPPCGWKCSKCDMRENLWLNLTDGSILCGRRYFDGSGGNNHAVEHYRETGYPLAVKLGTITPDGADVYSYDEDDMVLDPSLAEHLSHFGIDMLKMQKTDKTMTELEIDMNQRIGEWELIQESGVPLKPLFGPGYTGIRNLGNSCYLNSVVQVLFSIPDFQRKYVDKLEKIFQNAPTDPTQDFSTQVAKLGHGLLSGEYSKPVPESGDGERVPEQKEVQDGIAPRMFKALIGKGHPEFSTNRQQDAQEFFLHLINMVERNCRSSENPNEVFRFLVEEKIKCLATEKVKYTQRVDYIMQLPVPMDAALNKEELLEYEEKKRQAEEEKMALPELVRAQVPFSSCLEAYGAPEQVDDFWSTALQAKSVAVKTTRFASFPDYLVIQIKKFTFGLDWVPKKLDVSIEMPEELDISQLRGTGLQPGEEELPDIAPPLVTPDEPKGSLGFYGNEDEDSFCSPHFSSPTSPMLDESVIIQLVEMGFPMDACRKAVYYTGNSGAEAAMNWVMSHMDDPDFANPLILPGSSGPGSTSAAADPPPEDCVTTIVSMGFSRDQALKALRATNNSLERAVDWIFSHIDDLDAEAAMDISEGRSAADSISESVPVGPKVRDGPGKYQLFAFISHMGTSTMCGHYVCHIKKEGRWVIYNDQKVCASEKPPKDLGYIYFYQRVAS

Target: Hu antigen R (HuR) (human (endogenous in T24 and RT4)) (UniProt Q15717)
Test: co-IP; T24 and RT4 cells lysed in IP buffer; 2 ug anti-HuR overnight at 4°C, Protein A/G Agarose, five washes in IP buffer; Western blot with anti-USP5

Substance: ubiquitin-specific processing protease 5 (USP5) (from UniProt P45974 1-858) (enzyme)
- binding: binds
